PubChem BioAssay AID1053208, Peter MacCallum Cancer Centre – 2014

Assay: 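Find knock-downs that sensitise mouse osteosarcoma cells to doxorubicin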 (primary screen)
System: mouse osteosarcoma cells, early-passage culture from an engineered mouse model of fibroblastic bone tumour
Reagent: siRNA pool against mouse genes, 40 nM
Duration: about 120 h (48 h before drug, then 72 h with drug)
Challenge: doxorubicin 100 nM for 72 h, roughly 30-40% inhibitory dose
Measured: 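Viability read as ATP luminescence after 72 h of 100 nM doxorubicin or none, duplicate wells averaged, scaled to non-targeting siRNA, then expressed as robust z-scores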
Reading the numbers: viability z-score with doxorubicin: higher = more viable cells under doxorubicin; viability z-score without drug: higher = more viable cells with knock-down alone
Call rule: 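Called active if knock-down leaves viability unchanged without drug (z within -2 to 2) but lowers it with doxorubicin (z at or under -2)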
Here is an unselected part of about 17,000 reagents. 788 of all reagents (4.7%) count as active. 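Calls rest on z-score classes alone; an extra cut-off of viability at most 70% of control was not applied to them.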 Entries without a mark were called inactive. Not all columns of the deposit are shown.

{"gene":"Spag17os","combined z-score class":"no change with or without drug","viability z-score with doxorubicin":1.24,"viability z-score without drug":-1.35}
{"gene":"Zfp46","combined z-score class":"no change with or without drug","viability z-score with doxorubicin":-0.22,"viability z-score without drug":0.84}
{"gene":"Usp26","combined z-score class":"no change with or without drug","viability z-score with doxorubicin":-0.34,"viability z-score without drug":-0.67}
{"gene":"Myo3a","combined z-score class":"no change with or without drug","viability z-score with doxorubicin":1.69,"viability z-score without drug":0.34}
{"gene":"Txndc15","combined z-score class":"low cell count with doxorubicin only (active)","viability z-score with doxorubicin":-3.26,"viability z-score without drug":-0.17}
{"gene":"Ankrd61","combined z-score class":"high cell count without drug only","viability z-score with doxorubicin":1.35,"viability z-score without drug":2.02}
{"gene":"Snapin","combined z-score class":"no change with or without drug","viability z-score with doxorubicin":0.9,"viability z-score without drug":0.34}
{"gene":"Fam76a","combined z-score class":"no change with or without drug","viability z-score with doxorubicin":1.8,"viability z-score without drug":1.35}
{"gene":"Cp","combined z-score class":"no change with or without drug","viability z-score with doxorubicin":-0.9,"viability z-score without drug":-1.01}
{"gene":"Cpsf7","combined z-score class":"high cell count without drug only","viability z-score with doxorubicin":1.12,"viability z-score without drug":2.19}
{"gene":"Atxn7l2","combined z-score class":"no change with or without drug","viability z-score with doxorubicin":0.22,"viability z-score without drug":1.18}
{"gene":"Npl","combined z-score class":"no change with or without drug","viability z-score with doxorubicin":1.35,"viability z-score without drug":-1.18}

Part of the list above, showing only “viability z-score with doxorubicin”.
Cpsf7	1.12
Atxn7l2	0.22
